From publication PMC10714642

The chains behind the UniProt entries cited, without tags or fusion partners.
UniProt Q15208: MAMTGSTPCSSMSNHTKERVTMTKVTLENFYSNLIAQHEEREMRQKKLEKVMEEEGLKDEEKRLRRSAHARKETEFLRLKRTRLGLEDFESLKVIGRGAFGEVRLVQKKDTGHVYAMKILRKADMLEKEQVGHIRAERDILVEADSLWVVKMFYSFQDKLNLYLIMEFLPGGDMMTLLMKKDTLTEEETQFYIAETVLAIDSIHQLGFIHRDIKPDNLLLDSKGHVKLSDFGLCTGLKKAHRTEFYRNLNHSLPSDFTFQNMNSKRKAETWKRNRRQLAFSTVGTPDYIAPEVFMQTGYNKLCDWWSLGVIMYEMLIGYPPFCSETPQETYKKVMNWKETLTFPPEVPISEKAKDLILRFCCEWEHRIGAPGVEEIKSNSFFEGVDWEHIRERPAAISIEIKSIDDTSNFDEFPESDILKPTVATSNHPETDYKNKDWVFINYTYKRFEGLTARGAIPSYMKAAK

Target: T1, cytoplasmic activation/proliferation-associated protein-1 (Caprin-1) (human (Bxpc-3 and Panc-1 cells)) (UniProt Q14444)
T1 sequence: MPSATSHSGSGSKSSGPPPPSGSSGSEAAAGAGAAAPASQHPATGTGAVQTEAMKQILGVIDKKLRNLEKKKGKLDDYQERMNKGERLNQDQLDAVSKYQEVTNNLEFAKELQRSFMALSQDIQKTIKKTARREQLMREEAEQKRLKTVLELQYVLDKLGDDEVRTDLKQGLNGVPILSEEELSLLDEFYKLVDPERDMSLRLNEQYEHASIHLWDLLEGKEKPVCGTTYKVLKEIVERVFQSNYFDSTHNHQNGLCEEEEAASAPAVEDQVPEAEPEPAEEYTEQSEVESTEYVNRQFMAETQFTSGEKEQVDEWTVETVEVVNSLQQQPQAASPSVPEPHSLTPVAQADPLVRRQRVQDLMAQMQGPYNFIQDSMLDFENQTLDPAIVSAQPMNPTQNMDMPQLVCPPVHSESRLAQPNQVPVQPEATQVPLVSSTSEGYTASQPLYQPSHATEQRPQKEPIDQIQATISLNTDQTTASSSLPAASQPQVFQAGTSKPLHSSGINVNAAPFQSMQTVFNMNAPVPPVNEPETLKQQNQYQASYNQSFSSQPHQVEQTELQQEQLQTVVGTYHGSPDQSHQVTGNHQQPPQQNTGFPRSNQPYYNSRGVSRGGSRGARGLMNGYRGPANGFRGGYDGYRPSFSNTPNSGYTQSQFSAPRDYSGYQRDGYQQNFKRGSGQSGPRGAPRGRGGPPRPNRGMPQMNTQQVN
Test: affinity purification with mass spectrometry; proteins eluted from the Caprin-1 Co-IP resolved on 10% SDS-PAGE, Coomassie stained, in-gel digested, LC-MS/MS (LTQ Orbitrap Velos), searched against the UniProt human database

binding: binds
Substance: serine/threonine kinase 38 (STK38) (from UniProt Q15208 1-465)

No constants are given. Whether binding was seen depends on the method and setting. In cells and extracts the contact can be indirect. These calls come from enrichment with a bait or labelling near it, and not all partners need be listed.
